PubChem BioAssay AID1259405 – NCATS, 2018
Shown is an unselected part of about 50,000 reagents. In the full data, about 4,000 (8%) were called active. 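Mouse siRNA library applied to hamster cells; one well for each siRNA.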 Reagents against one gene are numbered here.

- Assay: 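Silenced genes that increase secreted GFP made by CHO cells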 (primary screen)
- System: Chinese hamster CHO-K1 ovary cells with stable secreted eGFP expression
- Knock-down reagent: single siRNA against mouse genes, 0.8 pmol siRNA per well (2 µl of 400 nM stock)
- Duration: 3 days
- Measured: 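Percent of the per-plate non-targeting control median for intracellular GFP per well by laser scanning cytometry and for cell viability by ATP luminescence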
- Direction: GFP, % of control: higher = more GFP per well, higher productivity; viability (ATP), % of control: higher = more viable cells (more ATP)
- Active means: 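a knock-down is called active if GFP reaches 120% or more of non-targeting control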

| Target gene | reagent | GFP, % of control | viability (ATP), % of control | activity call |
| --- | --- | --- | --- | --- |
| U2surp (GeneID 67958) | 1 | 125 | 113 | active |
| U2surp (GeneID 67958) | 2 | 101 | 101 | inactive |
| U2surp (GeneID 67958) | 3 | 99.9 | 86.4 | inactive |
| Klhl26 (GeneID 234378) | 1 | 68.8 | 80.9 | inactive |
| Klhl26 (GeneID 234378) | 2 | 73.4 | 69.6 | inactive |
| Klhl26 (GeneID 234378) | 3 | 107 | 87.6 | inactive |
| Sap30 (GeneID 60406) | 1 | 128 | 140 | active |
| Sap30 (GeneID 60406) | 2 | 58.7 | 74.8 | inactive |
| Copz2 (GeneID 56358) | 1 | 82 | 61.1 | inactive |
| Copz2 (GeneID 56358) | 2 | 97.3 | 74.8 | inactive |
| Copz2 (GeneID 56358) | 3 | 65.9 | 66.8 | inactive |
| Ndfip2 (GeneID 76273) | 1 | 64.2 | 95.3 | inactive |
| Ndfip2 (GeneID 76273) | 2 | 69.1 | 59.6 | inactive |
| Ndfip2 (GeneID 76273) | 3 | 81.2 | 70.9 | inactive |
| Zp3r (GeneID 22789) | 1 | 139 | 51.3 | active |
| Zp3r (GeneID 22789) | 2 | 78.4 | 56.1 | inactive |
| Zp3r (GeneID 22789) | 3 | 103 | 100 | inactive |
| Zbtb7c (GeneID 207259) | 1 | 54.9 | 59.1 | inactive |
| Zbtb7c (GeneID 207259) | 2 | 114 | 101 | inactive |
| Zbtb7c (GeneID 207259) | 3 | 6.9 | 6.21 | inactive |
| Borcs5 (GeneID 67774) | 1 | 57.4 | 76 | inactive |
| Borcs5 (GeneID 67774) | 2 | 82.4 | 73.3 | inactive |
| Borcs5 (GeneID 67774) | 3 | 106 | 78.3 | inactive |
| Ndufb9 (GeneID 66218) | 1 | 63.2 | 68.3 | inactive |
| Ndufb9 (GeneID 66218) | 2 | 105 | 95.7 | inactive |
| Trpc7 (GeneID 26946) | 1 | 110 | 133 | inactive |
| Trpc7 (GeneID 26946) | 2 | 79.5 | 86.2 | inactive |
| Trpc7 (GeneID 26946) | 3 | 97.1 | 84.8 | inactive |
| Creb3l3 (GeneID 208677) | 1 | 49.2 | 43.2 | inactive |
| Creb3l3 (GeneID 208677) | 2 | 60.9 | 57 | inactive |
| Creb3l3 (GeneID 208677) | 3 | 98.2 | 97.1 | inactive |

Next part; the last 5 above are carried over.
| Target gene | reagent | GFP, % of control | viability (ATP), % of control | activity call |
| --- | --- | --- | --- | --- |
| Trpc7 (GeneID 26946) | 2 | 79.5 | 86.2 | inactive |
| Trpc7 (GeneID 26946) | 3 | 97.1 | 84.8 | inactive |
| Creb3l3 (GeneID 208677) | 1 | 49.2 | 43.2 | inactive |
| Creb3l3 (GeneID 208677) | 2 | 60.9 | 57 | inactive |
| Creb3l3 (GeneID 208677) | 3 | 98.2 | 97.1 | inactive |
| Or6p1 (GeneID 258756) | 1 | 66.4 | 63.2 | inactive |
| Or6p1 (GeneID 258756) | 2 | 74.9 | 85.3 | inactive |
| Or6p1 (GeneID 258756) | 3 | 69.6 | 70 | inactive |
| Klhl28 (GeneID 66689) | 1 | 87.5 | 83.5 | inactive |
| Klhl28 (GeneID 66689) | 2 | 84.6 | 66.9 | inactive |
| Klhl28 (GeneID 66689) | 3 | 130 | 121 | active |
| Afg1l (GeneID 215951) | 1 | 103 | 69.8 | inactive |
| Afg1l (GeneID 215951) | 2 | 93.8 | 67.9 | inactive |
| Afg1l (GeneID 215951) | 3 | 54.3 | 73.6 | inactive |
| Or6c65 (GeneID 258930) | 1 | 51.6 | 45.4 | inactive |
| Or6c65 (GeneID 258930) | 2 | 70.5 | 71.2 | inactive |
| Or6c65 (GeneID 258930) | 3 | 67.1 | 48.1 | inactive |
| Mis18bp1 (GeneID 217653) | 1 | 82 | 106 | inactive |
| Mis18bp1 (GeneID 217653) | 2 | 66.8 | 89.2 | inactive |
| Mis18bp1 (GeneID 217653) | 3 | 87.3 | 105 | inactive |
| Spag7 (GeneID 216873) | 1 | 165 | 108 | active |
| Spag7 (GeneID 216873) | 2 | 10.7 | 101 | inactive |
| Spag7 (GeneID 216873) | 3 | 63.7 | 67.4 | inactive |
| Lhfpl2 (GeneID 218454) | 1 | 75.4 | 76.2 | inactive |
| Lhfpl2 (GeneID 218454) | 2 | 62.4 | 80.2 | inactive |
| Lhfpl2 (GeneID 218454) | 3 | 107 | 98.1 | inactive |
| Agt (GeneID 11606) | 1 | 72.2 | 48.2 | inactive |
| Agt (GeneID 11606) | 2 | 51.9 | 56.2 | inactive |
| Agt (GeneID 11606) | 3 | 56.9 | 51.2 | inactive |
| Itpr2 (GeneID 16439) | 1 | 147 | 98.8 | active |
| Itpr2 (GeneID 16439) | 2 | 78 | 37.7 | inactive |
| Itpr2 (GeneID 16439) | 3 | 69.4 | 65.2 | inactive |
